Results taken from patent US12006553B2, “Companion diagnostics for mitochondrial inhibitors” (priority 2017, dated 2024).
At least one compound was matched to its structure with a doubt left.

How the values were obtained:
[1] = tested on: DoxyR-CSCs (Doxy-resistant (DoxyR)-MCF7 cells); assay: Sensitivity of Doxy-resistant CSCs to other metabolic therapies; format: cell-based
Description: One concern with doxycycline therapy is the potential for the development of drug-resistance in CSCs. To investigate this issue, the inventors developed and characterized the phenotypic behavior of Doxy-resistant (DoxyR)-MCF7 cells.

hypoxic CSCs = assay: Targeting of hypoxic CSCs / Paclitaxel-resistance under hypoxia; format: cell-based; details: conditions of hypoxia

SMILES	sensitivity of DoxyR-CSCs to the drug [1]	effect on hypoxic CSCs and Paclitaxel-resistance (hypoxic CSCs)
O=C1C(O)=C([C@H]2CC[C@H](c3ccc(Cl)cc3)CC2)C(=O)c2ccccc21 [Atovaquone]	sensitive	
C[C@H]1c2cccc(O)c2C(=O)C2=C(O)[C@]3(O)C(=O)C(C(N)=O)=C(O)[C@@H](N(C)C)[C@@H]3[C@@H](O)[C@@H]21 [Doxycycline]		overcomes Paclitaxel-resistance
